# The list shows a part of the results. Single values are uncertain here, since repeats match poorly.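 Human kidney-derived cells stably carry a construct in which eight TEAD-binding elements drive luciferase, measured by luminescence in a drug-repurposing library screen. A hit is any compound whose signal exceeds the plate mean by more than five robust Z scores.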
# Tested on: HEK293A TEAD-LUC reporter
# Test: TEAD-luciferase reporter activity (YAP activation), robust Z score vs plate; higher = stronger YAP/TEAD activation
# Details: 24 h
SMILES,TEAD-luciferase reporter activity (compound concentration: 200 nM),TEAD-luciferase reporter activity (compound concentration: 10 uM),TEAD-luciferase reporter activity (compound concentration: 2 uM)
O=C(C1CCCN1C(=O)c1ccccc1F)N1CCC(N2Cc3ccccc3C2=O)CC1 (centres undefined),inactive: -0.413,inactive: 0.0877,
CN(C)CCC1CN(C)C(=S)c2cccnc2O1 (centres undefined),inactive: -0.41,inactive: 2.4,inactive: 0.381
C#CCN1CCC2=C(C1)c1c(OC(=O)CCCN3CCCCC3)cc(C(C)C(C)CCCCC)cc1OC2(C)C (centres undefined) [Nabutan hyrochloride],inactive: -0.724,inactive: -0.732,inactive: 0.891
CCCN(CCC)C(=O)C1Cc2sc3c(c2C1)C(c1ccccc1Cl)=NCc1nnc(C)n1-3 (centres undefined),inactive: -0.482,inactive: -1.73,inactive: 0.46
CN(C)C(c1cccnc1)C1COCOC1 (centres undefined) [doxpicomine],inactive: 0.0477,inactive: -1.64,inactive: 1.53
CNc1cccc(NC(=O)NC2N=C(c3ccccn3)c3ccccc3N(CC(=O)C(C)(C)C)C2=O)c1 (centres undefined) [Netazepide],inactive: 1.48,inactive: 0.852,inactive: -0.633
O=C1CC[C@@]2(O)[C@H]3Cc4ccc(O)c5c4[C@@]2(CCN3CC2CC2)[C@H]1O5 [Naltrexone],inactive: -0.837,inactive: -0.322,inactive: -0.893
O=C1CC[C@@]2(O)[C@H]3Cc4ccc(O)c5c4[C@@]2(CCN3CC2CC2)[C@H]1O5 [naltrexone],,,inactive: -0.238
"O=C(Nc1ccncc1)C(=O)c1cn(Cc2ccc(Cl)cc2)c2ccccc12 [indibulin, nanoparticle]",inactive: -0.457,inactive: 3.7,inactive: -1.59
O=C(Nc1ccncc1)C(=O)c1cn(Cc2ccc(Cl)cc2)c2ccccc12 [indibulin],,,inactive: -0.499
CCOC(=O)c1ncn2c1CN(C)C(=O)c1c(Cl)cccc1-2 [Sarmazenil],inactive: -0.506,inactive: 3.98,inactive: -1.07
O=C1CN=C(c2ccccc2)c2cc(Cl)ccc2N1 [Nordiazepam],inactive: 0.305,inactive: 3.14,
O=C(NCC1CCOCC1)c1cnc(Nc2ccc(Cl)cc2Cl)cc1C1CC1,inactive: -1.41,inactive: 0.979,inactive: 2.7
CCCc1cc2c(s1)CN[C@@H]1CCc3cc(OC(C)=O)c(OC(C)=O)cc3[C@@H]21,inactive: -1.49,active: 5.77,inactive: 3.7
CCC(COCc1cc(OC)c(OC)c(OC)c1)(c1ccccc1)N(C)C (centres undefined),inactive: -1.36,inactive: 0.747,inactive: -0.837
C=CCN(C1=NCCN1)c1c(Cl)cccc1Cl [Alinidine],inactive: -1.89,inactive: -0.569,inactive: -1.37
CCCN1CC[C@H]2c3cc(O)ccc3CC[C@H]21,inactive: -0.204,inactive: 1.74,inactive: -0.847
Cc1ccc(F)cc1NC1=NCCN1 [flutonidine],inactive: 3.17,inactive: -1.47,inactive: 1.33
CCc1c(C)cc(C(=O)NC2(C(=O)O)CCCCC2)c(=O)n1Cc1ccc(F)cc1,inactive: -0.962,inactive: -1.35,inactive: -0.34
COC(=O)C1=CCCN(C)C1,inactive: -1.02,inactive: -0.0772,

SMILES,TEAD-luciferase reporter activity (compound concentration: 200 nM),TEAD-luciferase reporter activity (compound concentration: 10 uM),TEAD-luciferase reporter activity (compound concentration: 2 uM)
"COC(=O)C1=CCCN(C)C1 [arecoline, transdermal]",,,inactive: -0.872
Cc1ncc([N+](=O)[O-])n1CCOC(N)=O,inactive: -1.37,inactive: 0.145,inactive: 0.834
CN1C(=O)CN(C(N)=O)C(c2ccccc2)c2cc(Cl)ccc21 (centres undefined),inactive: -0.141,inactive: -0.153,inactive: -0.876
CC(C)C(NC(=O)c1ccc(C(=O)NCC(=O)O)cc1)C(=O)N1CCC[C@H]1C(=O)NC(C(=O)C(F)(F)F)C(C)C (some centres undefined),inactive: 0.195,inactive: 0.561,inactive: -0.623
CCNC1(c2cccs2)CCCCC1=O (centres undefined),inactive: 1.12,inactive: 0.684,inactive: -1.43
COc1cc2c(c(OC)c1OC)-c1ccc(OC)c(=O)cc1[C@@H](NC(C)=O)CC2,inactive: 2.44,active: 11.3,
COc1cc2c(c(OC)c1OC)-c1ccc(OC)c(=O)cc1[C@@H](NC(C)=O)CC2 [colchicine],,,active: 12
COCN1C(=O)N(COC)C(=O)C(c2ccccc2)(c2ccccc2)C1=O,inactive: -0.68,inactive: -0.0309,inactive: 0.535
O=C(N[C@H]1C2CCN(CC2)[C@@H]1Cc1cccnc1)c1cc2ccccc2o1 [Bradanicline],inactive: 0.11,inactive: 0.831,inactive: 1.92
COc1ccc(O)c(C(C)(C)C)c1,active: 8.71,inactive: -0.811,inactive: -0.357
C=C(C)[C@@H]1CCC(C)=C[C@H]1c1c(O)cc(CCCCC)cc1O [Cannabidiol],inactive: 4.38,inactive: 2.35,inactive: -0.603
CC(C)c1ccc(NC(=O)Oc2ccc3c(c2)[C@]2(C)CCN[C@@H]2N3)cc1,inactive: -1.02,inactive: 1.06,inactive: -0.756
CC(C)Cc1noc(C2CC3CCC2N3)n1 (centres undefined),inactive: -0.798,inactive: -0.0598,inactive: -0.848
Cc1nc(Cl)c(Cl)n1CCCCN1CC=C(c2cccc(C(F)(F)F)c2)CC1,inactive: -1.02,inactive: 2.51,inactive: -0.719
CNC(C)Cc1ccccc1OC (centres undefined),inactive: -2.31,inactive: -1.61,inactive: 0.328
C[C@]1(O)CC[C@H]2[C@@H]3CC[C@@]45O[C@]4(C)C(O)=C(C#N)C[C@]5(C)[C@H]3CC[C@@]21C [epostane],inactive: -1.25,inactive: -0.512,inactive: -0.43
CO[C@H]1C[C@H](O[C@H]2CC[C@@]3(C)[C@H](CC[C@@H]4[C@@H]3CC[C@]3(C)[C@@H](C5=CC(=O)OC5)[C@@H](OC(C)=O)C[C@]43O)C2)O[C@@H](C)[C@@H]1O [Oleandrin],active: 6.18,inactive: 4.09,inactive: -2.08
N#Cc1ccc(N2CCCC2C(O)C(F)(F)F)cc1C(F)(F)F (centres undefined),inactive: 2.43,inactive: -0.0863,inactive: -1.18
CCCCCCCC(C)c1cc(OC(=O)CCCN(CC)CC)c2c(c1)OC(C)(C)C1=C2CC(C)CC1 (centres undefined),inactive: -2.06,inactive: 2.53,inactive: -1.33
O[C@H]1[C@H](O)[C@@H](O)CN2CC[C@H](O)[C@H]12 [Castanospermine],,,inactive: -0.87

# A section from the list above:
SMILES,TEAD-luciferase reporter activity (compound concentration: 200 nM),TEAD-luciferase reporter activity (compound concentration: 10 uM),TEAD-luciferase reporter activity (compound concentration: 2 uM)
CCCCCCCC(C)c1cc(OC(=O)CCCN(CC)CC)c2c(c1)OC(C)(C)C1=C2CC(C)CC1 (centres undefined),inactive: -2.06,inactive: 2.53,inactive: -1.33
O[C@H]1[C@H](O)[C@@H](O)CN2CC[C@H](O)[C@H]12 [Castanospermine],,,inactive: -0.87

# Next part:

SMILES,TEAD-luciferase reporter activity (compound concentration: 200 nM),TEAD-luciferase reporter activity (compound concentration: 10 uM),TEAD-luciferase reporter activity (compound concentration: 2 uM)
O[C@H]1[C@H](O)[C@@H](O)CN2CC[C@H](O)[C@H]12,inactive: 2.93,inactive: -0.0312,
c1ccc2c(c1)Nc1ccccc1S2,inactive: -0.799,inactive: -0.181,
c1ccc2c(c1)Nc1ccccc1S2 [Phenothiazine],,,inactive: -0.256
"COC1=CCC2[C@H]3Cc4ccc(OC)c5c4[C@@]2(CCN3C)[C@H]1O5 (some centres undefined) [6-O-Methylcodeine, derivative of]",inactive: -0.316,inactive: -0.401,inactive: -0.68
"CN(C)C(=O)Oc1cccc([N+](C)(C)C)c1 [neostigmine methylsulfate, Flamel Technologies]",inactive: -0.496,inactive: -1.22,inactive: -1.16
O=[As](O)(O)c1ccc(NCCNc2ccc([As](=O)(O)O)cc2)cc1,inactive: -1.02,inactive: -1.64,inactive: 0.804
CNC(C)CC1CCCC1 (centres undefined),inactive: 0.262,active: 5.34,inactive: 1.7
CC(N)Cc1c[nH]c2ccc(OCc3cccs3)cc12 (centres undefined),inactive: -0.425,inactive: -0.0808,inactive: 2.21
CC(C)n1c(N2CCNCC2)nc2cc(N)ccc21,inactive: 1.15,inactive: -0.892,inactive: -1.14
CC(Cc1ccccc1)NC(C#N)c1ccccc1 (centres undefined),inactive: -0.572,inactive: -0.955,inactive: -0.795
NC(=O)C1CC(=O)NCCCC(NC(=O)C(N)Cc2ccc(O)cc2)C(=O)NC(Cc2ccccc2)C(=O)N1 (centres undefined) [Pharmaprojects No. 1890],inactive: 0.294,inactive: -0.115,inactive: -0.325
CNCC(O)c1ccc(O)c(OC)c1 (centres undefined),inactive: -0.258,inactive: -0.991,inactive: -0.858
Nc1ccccc1C(=O)OCCC1CCCCN1 (centres undefined),inactive: -0.106,inactive: -1.05,inactive: 1.17
CCCCN1CCC(OC(=O)CC)(c2ccccc2)C1C (centres undefined),inactive: 0.573,inactive: 1.17,inactive: -0.256
CCC1(C2=NCCN2)Cc2ccccc2O1 (centres undefined) [Efaroxan],,,inactive: -0.63
CCC1(C2=NCCN2)Cc2ccccc2O1 (centres undefined),inactive: 1.07,inactive: 0.0462,
CCNCC(O)c1cccc(OC(=O)C(C)(C)C)c1 (centres undefined) [Etilefrine pivalate],inactive: 0.0102,inactive: -1.42,inactive: -0.655
Nc1ccc([As](=O)(O)O)cc1,inactive: 2.02,inactive: 0.178,inactive: 1.58
CC1CCC(CN)(CC(=O)O)C1 (centres undefined),inactive: -1.98,inactive: -0.196,inactive: -1.85
OC1(c2ccc(Cl)cc2)c2ccccc2C2=NCCN21 (centres undefined) [mazindol],inactive: 2.03,inactive: 4.13,inactive: 2.82
